# PubChem BioAssay AID1259425 – University of Nebraska Medical Center, 2018
# Purpose: 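Compare each knockdown with KSR1 silencing using changes in marker transcripts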 (primary screen)
# System: HCT116 human colon cancer cells
# Knock-down reagent: siRNA pool against human genes, 50 nM siRNA
# Measured: 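After 50 nM siRNA pool, branched-DNA assay measures six marker transcripts per well, minus blank, normalised to the geometric mean of two housekeeping transcripts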
# Direction: BNIP3L mRNA: higher = more BNIP3L transcript after knockdown; NDRG1 mRNA: higher = more NDRG1 transcript after knockdown; BNIP3 mRNA: higher = more BNIP3 transcript after knockdown; ALDOC mRNA: higher = more ALDOC transcript after knockdown; ACSL5 mRNA: higher = more ACSL5 transcript after knockdown
# The whole screen tested about 14,000 reagents; below is an unselected part. Not stated in the record: the time to read-out.
The first 4 records, ahead of the listing:
gene knocked down,"BNIP3L mRNA, set 1","NDRG1 mRNA, set 1","BNIP3 mRNA, set 1","ALDOC mRNA, set 1","ACSL5 mRNA, set 1"
CARD18 (GeneID 59082),0.115,0.128,0.27,0.0215,0.169
WNT2B (GeneID 7482),0.056,0.245,0.0527,0.0177,0.138
MAOA (GeneID 4128),0.0616,0.189,0.245,0.0142,0.0761
MYO5B (GeneID 4645),0.13,0.125,0.38,0.039,0.193

The listing, from the first entry:
gene knocked down,"BNIP3L mRNA, set 1","NDRG1 mRNA, set 1","BNIP3 mRNA, set 1","ALDOC mRNA, set 1","ACSL5 mRNA, set 1"
CARD18 (GeneID 59082),0.115,0.128,0.27,0.0215,0.169
WNT2B (GeneID 7482),0.056,0.245,0.0527,0.0177,0.138
MAOA (GeneID 4128),0.0616,0.189,0.245,0.0142,0.0761
MYO5B (GeneID 4645),0.13,0.125,0.38,0.039,0.193
RBM34 (GeneID 23029),0.12,0.16,0.348,0.0515,0.147
GNB1L (GeneID 54584),0.0977,0.136,0.238,0.0161,0.127
CD74 (GeneID 972),0.0764,0.106,0.164,0.00907,0.0996
KHDC4 (GeneID 22889),0.0909,0.162,0.355,0.0187,0.0841
PYGB (GeneID 5834),0.0903,0.523,0.239,0.0284,0.267
ADGRB2 (GeneID 576),0.253,0.334,0.507,0.0641,0.365
ZCCHC14 (GeneID 23174),0.103,0.245,0.317,0.0501,0.225
CWC27 (GeneID 10283),0.0585,0.185,0.247,0.0246,0.169
MMP8 (GeneID 4317),0.0711,0.135,0.12,0.0267,0.192
MLXIPL (GeneID 51085),0.182,0.132,0.137,0.000762,0.126
ADGRF4 (GeneID 221393),0.142,0.237,0.271,0.0549,0.187
NFX1 (GeneID 4799),0.0503,0.11,0.279,0.00194,0.158
BIRC8 (GeneID 112401),0.106,0.815,0.21,0.0388,0.225
NABP1 (GeneID 64859),0.144,1.04,0.338,0.0474,0.248
WNT10A (GeneID 80326),0.0597,0.264,0.226,0.0218,0.269
ADAMTS8 (GeneID 11095),0.0742,0.15,0.292,0.0198,0.074
PAQR8 (GeneID 85315),1.36,0.764,0.398,0.209,0.527
SNX12 (GeneID 29934),0.114,0.298,0.332,0.0403,0.169
ZNF271P (GeneID 10778),0.0755,0.144,0.25,0.0359,0.105
NUP160 (GeneID 23279),0.0931,0.109,0.272,0.0348,0.0717
ATP6V1A (GeneID 523),0.289,0.111,0.642,0.127,0.0958
BHLHE40 (GeneID 8553),0.18,0.293,0.497,0.0516,0.235
EXD2 (GeneID 55218),0.0923,0.21,0.317,0.0277,0.122
ERV3-2 (GeneID 57612),0.0505,0.098,0.103,0.0257,0.379
LY6H (GeneID 4062),0.0839,0.0728,0.234,0.0149,0.14
TAPBP (GeneID 6892),0.0684,0.362,0.322,0.0452,0.416
TP63 (GeneID 8626),0.0558,0.0995,0.219,0.0153,0.258
MRGPRX2 (GeneID 117194),0.0503,0.0939,0.237,0.0378,0.126
FMO4 (GeneID 2329),0.0695,0.079,0.212,0.016,0.126
KLHL2 (GeneID 11275),0.0775,0.234,0.262,0.0442,0.119
SLC35E3 (GeneID 55508),0.0682,0.0968,0.256,0.0155,0.198
SPRY2 (GeneID 10253),0.0698,0.206,0.256,0.0219,0.113
PINK1 (GeneID 65018),0.109,0.0962,0.245,0.00643,0.351
TREX1 (GeneID 11277),0.0694,0.0569,0.256,0.0592,0.128
BRMS1 (GeneID 25855),0.26,0.884,0.602,0.0955,0.622
ATL1 (GeneID 51062),0.126,0.157,0.327,0.0435,0.264
CD84 (GeneID 8832),0.107,0.144,0.26,0.0237,0.0851
HBEGF (GeneID 1839),0.0255,0.171,0.183,0.0249,0.187
RWDD3 (GeneID 25950),0.0795,0.176,0.288,0.0107,0.1
THOC6 (GeneID 79228),0.154,0.853,0.413,0.0212,0.29
GLP2R (GeneID 9340),0.127,0.0596,0.259,0.0232,0.107
FLRT2 (GeneID 23768),0.131,0.164,0.561,0.0378,0.119
CCT5 (GeneID 22948),0.116,0.269,0.256,0.00261,0.344
FIGNL1 (GeneID 63979),0.0544,0.161,0.2,0.0267,0.234
PSG9 (GeneID 5678),0.177,0.253,0.259,0.0306,0.262
HCK (GeneID 3055),0.0948,0.136,0.47,0.00823,0.303
